Assay results reported in PubChem BioAssay.
“And” between values parts separate entries of the source, which are not always exact repeats. Identical values can stand only once. The list shows a part of the results. Where no call is shown, the source marks the result inconclusive.

Experiment: protection against mutant huntingtin cytotoxicity, PC12 cells, LDH release (AID 1610)
Conditions: PC12 mutant huntingtin toxicity; at 100 µM (top of the series)

| SMILES | normalised LDH release, lower = protection |
| --- | --- |
| Nc1ccc(C(=O)NCC(=O)O)cc1 | 0.806 |
| CC/C(=C(/CC)c1ccc(O)cc1)c1ccc(O)cc1 | 0.255 |
| CC[N+](C)(C)c1cccc(O)c1 | 0.664 |
| CN1CCN(C(c2ccccc2)c2ccc(Cl)cc2)CC1 (centres undefined) | 0.97 |
| CC(=O)CC(c1ccccc1)c1c(O)c2ccccc2oc1=O (centres undefined) | 0.854 |
| C1CCC(C(CC2CCCCN2)C2CCCCC2)CC1 (centres undefined) | 1.18 |
| CCC(=O)O[C@@H](O[P@](=O)(CCCCc1ccccc1)CC(=O)N1C[C@H](C2CCCCC2)C[C@H]1C(=O)O)C(C)C | 1.08 |
| CC(C)NCC(O)c1ccc2ccccc2c1 (centres undefined) | 1.01 |
| Fc1ccc(C(c2ccccc2)(c2ccccc2F)n2ccnc2)cc1 (centres undefined) | 0.868 and 0.77 |
| CC1=NN(c2ccccc2)C(=O)C1 | 1.07 |
| O=C(O)CN(CC(=O)O)Cc1cc2c(-c3ccccc3C(=O)O)c3cc(CN(CC(=O)O)CC(=O)O)c(=O)cc-3oc2cc1O | 1.01 |
| CC(C)(Oc1ccc(CCNC(=O)c2ccc(Cl)cc2)cc1)C(=O)O | 0.922 |
| Cc1cc(CC(=O)O)n(C)c1C(=O)c1ccc(Cl)cc1 | 1.75 |
| O=C1NS(=O)(=O)c2ccccc21 | 0.82 |
| CC(C(=O)O)c1ccc(-c2ccccc2)c(F)c1 (centres undefined) | 0.848 |
| Cc1ccc(S(=O)(=O)NC(=O)NN2CCCCCC2)cc1 | 1.34 |
| C[C@@H]1O[C@@H](OC[C@H]2O[C@@H](Oc3c(-c4ccc(O)c(O)c4)oc4cc(O)cc(O)c4c3=O)[C@H](O)[C@@H](O)[C@@H]2O)[C@H](O)[C@H](O)[C@H]1O | 0.661 |
| Cc1cc(O)cc(C)c1Cl | 0.947 |
| NC(=NCCCCCCN=C(N)/N=C(\N)Nc1ccc(Cl)cc1)/N=C(\N)Nc1ccc(Cl)cc1 | 0.705 |
